{"source": "PubChem BioAssay AID1508587 (Peter MacCallum Cancer Centre, 2020)", "test": "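Knockdowns that add to vemurafenib's cut in melanoma glycolysis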 (follow-up of hits)", "cells": "human WM266.4 melanoma cells with a BRAF V600 mutation", "knock-down reagent": "single siRNA against human genes, 25 nM", "duration": "96 h", "conditions": "vemurafenib 300 nM (about IC25), given 48 h after transfection for 48 h", "measured": "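Per-cell lactate from absorbance divided by DAPI nucleus counts, compared with and without vemurafenib, relative to non-targeting siRNA, mean of 2 replicates; nuclear counts also give cell number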", "scale": "lactate per cell, drug vs no drug: higher = less drug-induced drop in lactate per cell", "hit rule": "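a duplex is active when its lactate-per-cell ratio with versus without drug falls under 0.55, i.e. 2 SD below non-targeting; a gene is confirmed if 2 or more of 4 duplexes pass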", "note": "The whole screen tested about 1,600 reagents; shown is a random part of them. Over the whole deposit, 623 (39%) were called active. 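Calls are for each duplex; lactate ratios contain extreme outliers.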 Reagents against one gene are numbered here. Further read-outs or replicates are left out here. Reagent sequences are not shown."}
{"Target gene": "RAMP1 (receptor activity modifying protein 1)", "reagent no.": 1, "lactate per cell, drug vs no drug": 0.78, "Outcome": "inactive"}
{"Target gene": "RAMP1 (receptor activity modifying protein 1)", "reagent no.": 2, "lactate per cell, drug vs no drug": 0.72, "Outcome": "inactive"}
{"Target gene": "RAMP1 (receptor activity modifying protein 1)", "reagent no.": 3, "lactate per cell, drug vs no drug": 0.45, "Outcome": "active"}
{"Target gene": "RAMP1 (receptor activity modifying protein 1)", "reagent no.": 4, "lactate per cell, drug vs no drug": 0.9, "Outcome": "inactive"}
{"Target gene": "VPS45 (vacuolar protein sorting 45 homolog)", "reagent no.": 1, "lactate per cell, drug vs no drug": 0.43, "Outcome": "active"}
{"Target gene": "VPS45 (vacuolar protein sorting 45 homolog)", "reagent no.": 2, "lactate per cell, drug vs no drug": 0.55, "Outcome": "inactive"}
{"Target gene": "VPS45 (vacuolar protein sorting 45 homolog)", "reagent no.": 3, "lactate per cell, drug vs no drug": 0.36, "Outcome": "active"}
{"Target gene": "VPS45 (vacuolar protein sorting 45 homolog)", "reagent no.": 4, "lactate per cell, drug vs no drug": 0.76, "Outcome": "inactive"}
{"Target gene": "OSBP2 (oxysterol binding protein 2)", "reagent no.": 1, "lactate per cell, drug vs no drug": 0.92, "Outcome": "inactive"}
{"Target gene": "OSBP2 (oxysterol binding protein 2)", "reagent no.": 2, "lactate per cell, drug vs no drug": 0.4, "Outcome": "active"}
{"Target gene": "OSBP2 (oxysterol binding protein 2)", "reagent no.": 3, "lactate per cell, drug vs no drug": 0.66, "Outcome": "inactive"}
{"Target gene": "OSBP2 (oxysterol binding protein 2)", "reagent no.": 4, "lactate per cell, drug vs no drug": 0.77, "Outcome": "inactive"}
{"Target gene": "VCX3B (variable charge X-linked 3B)", "reagent no.": 1, "lactate per cell, drug vs no drug": 0.52, "Outcome": "active"}
{"Target gene": "VCX3B (variable charge X-linked 3B)", "reagent no.": 2, "lactate per cell, drug vs no drug": 0.64, "Outcome": "inactive"}
{"Target gene": "VCX3B (variable charge X-linked 3B)", "reagent no.": 3, "lactate per cell, drug vs no drug": 0.7, "Outcome": "inactive"}
{"Target gene": "VCX3B (variable charge X-linked 3B)", "reagent no.": 4, "lactate per cell, drug vs no drug": 0.4, "Outcome": "active"}
{"Target gene": "BCCIP (BRCA2 and CDKN1A interacting protein)", "reagent no.": 1, "lactate per cell, drug vs no drug": 0.64, "Outcome": "inactive"}
{"Target gene": "BCCIP (BRCA2 and CDKN1A interacting protein)", "reagent no.": 2, "lactate per cell, drug vs no drug": 0.49, "Outcome": "active"}
{"Target gene": "BCCIP (BRCA2 and CDKN1A interacting protein)", "reagent no.": 3, "lactate per cell, drug vs no drug": 0.61, "Outcome": "inactive"}
{"Target gene": "BCCIP (BRCA2 and CDKN1A interacting protein)", "reagent no.": 4, "lactate per cell, drug vs no drug": 0.57, "Outcome": "inactive"}
{"Target gene": "IGFALS", "reagent no.": 1, "lactate per cell, drug vs no drug": 0.56, "Outcome": "inactive"}
{"Target gene": "IGFALS", "reagent no.": 2, "lactate per cell, drug vs no drug": 0.75, "Outcome": "inactive"}
{"Target gene": "IGFALS", "reagent no.": 3, "lactate per cell, drug vs no drug": 0.41, "Outcome": "active"}
{"Target gene": "IGFALS", "reagent no.": 4, "lactate per cell, drug vs no drug": 0.79, "Outcome": "inactive"}
{"Target gene": "SEC61A1 (SEC61 translocon subunit alpha 1)", "reagent no.": 1, "lactate per cell, drug vs no drug": 0.24, "Outcome": "active"}
{"Target gene": "SEC61A1 (SEC61 translocon subunit alpha 1)", "reagent no.": 2, "lactate per cell, drug vs no drug": 0.68, "Outcome": "inactive"}
{"Target gene": "SEC61A1 (SEC61 translocon subunit alpha 1)", "reagent no.": 3, "lactate per cell, drug vs no drug": 0.59, "Outcome": "inactive"}
{"Target gene": "SEC61A1 (SEC61 translocon subunit alpha 1)", "reagent no.": 4, "lactate per cell, drug vs no drug": 0.64, "Outcome": "inactive"}
